Measurements from the supplement of paper PMC12067093, “Discovery and optimisation of a covalent ligand for TRIM25 and its application to targeted protein ubiquitination” (Chemical Science, 2025).
The other results are listed elsewhere or left out.

Protein sequences, listed by entry. Tags and fused reporters are not part of them. Lines headed by an entry give the natural chain unless they say otherwise; changes in a name come on top.
UniProt P19971: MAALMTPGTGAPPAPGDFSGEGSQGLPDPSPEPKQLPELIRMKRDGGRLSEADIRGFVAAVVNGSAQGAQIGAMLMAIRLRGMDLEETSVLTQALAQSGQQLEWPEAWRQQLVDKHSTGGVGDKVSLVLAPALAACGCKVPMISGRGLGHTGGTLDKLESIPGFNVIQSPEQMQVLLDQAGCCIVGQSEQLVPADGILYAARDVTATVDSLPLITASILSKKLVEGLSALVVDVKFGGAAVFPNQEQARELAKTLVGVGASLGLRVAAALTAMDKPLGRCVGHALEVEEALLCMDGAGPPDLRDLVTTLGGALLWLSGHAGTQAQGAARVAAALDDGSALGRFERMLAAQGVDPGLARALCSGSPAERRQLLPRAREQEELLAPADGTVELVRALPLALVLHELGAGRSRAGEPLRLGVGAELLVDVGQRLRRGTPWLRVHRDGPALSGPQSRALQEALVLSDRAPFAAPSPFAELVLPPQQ
UniProt P49459, whole entry, looked up: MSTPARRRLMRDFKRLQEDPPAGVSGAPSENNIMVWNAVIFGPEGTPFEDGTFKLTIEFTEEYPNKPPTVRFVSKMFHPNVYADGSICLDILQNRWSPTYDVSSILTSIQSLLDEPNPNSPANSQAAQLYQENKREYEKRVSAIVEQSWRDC
UniProt P26368, whole entry, looked up: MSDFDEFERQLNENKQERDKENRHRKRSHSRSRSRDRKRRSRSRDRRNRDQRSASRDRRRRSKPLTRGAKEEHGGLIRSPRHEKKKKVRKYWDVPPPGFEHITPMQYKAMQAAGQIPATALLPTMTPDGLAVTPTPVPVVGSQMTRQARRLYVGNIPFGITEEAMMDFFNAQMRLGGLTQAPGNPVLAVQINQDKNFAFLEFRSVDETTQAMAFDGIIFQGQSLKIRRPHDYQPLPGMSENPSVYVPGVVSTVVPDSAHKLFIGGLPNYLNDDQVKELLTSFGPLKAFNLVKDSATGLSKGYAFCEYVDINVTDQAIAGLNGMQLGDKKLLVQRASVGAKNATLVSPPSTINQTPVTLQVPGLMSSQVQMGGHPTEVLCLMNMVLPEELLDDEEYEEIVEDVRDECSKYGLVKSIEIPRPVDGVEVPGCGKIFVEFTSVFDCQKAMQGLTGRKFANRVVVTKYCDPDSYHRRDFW
UniProt Q5T4S7, whole entry, looked up: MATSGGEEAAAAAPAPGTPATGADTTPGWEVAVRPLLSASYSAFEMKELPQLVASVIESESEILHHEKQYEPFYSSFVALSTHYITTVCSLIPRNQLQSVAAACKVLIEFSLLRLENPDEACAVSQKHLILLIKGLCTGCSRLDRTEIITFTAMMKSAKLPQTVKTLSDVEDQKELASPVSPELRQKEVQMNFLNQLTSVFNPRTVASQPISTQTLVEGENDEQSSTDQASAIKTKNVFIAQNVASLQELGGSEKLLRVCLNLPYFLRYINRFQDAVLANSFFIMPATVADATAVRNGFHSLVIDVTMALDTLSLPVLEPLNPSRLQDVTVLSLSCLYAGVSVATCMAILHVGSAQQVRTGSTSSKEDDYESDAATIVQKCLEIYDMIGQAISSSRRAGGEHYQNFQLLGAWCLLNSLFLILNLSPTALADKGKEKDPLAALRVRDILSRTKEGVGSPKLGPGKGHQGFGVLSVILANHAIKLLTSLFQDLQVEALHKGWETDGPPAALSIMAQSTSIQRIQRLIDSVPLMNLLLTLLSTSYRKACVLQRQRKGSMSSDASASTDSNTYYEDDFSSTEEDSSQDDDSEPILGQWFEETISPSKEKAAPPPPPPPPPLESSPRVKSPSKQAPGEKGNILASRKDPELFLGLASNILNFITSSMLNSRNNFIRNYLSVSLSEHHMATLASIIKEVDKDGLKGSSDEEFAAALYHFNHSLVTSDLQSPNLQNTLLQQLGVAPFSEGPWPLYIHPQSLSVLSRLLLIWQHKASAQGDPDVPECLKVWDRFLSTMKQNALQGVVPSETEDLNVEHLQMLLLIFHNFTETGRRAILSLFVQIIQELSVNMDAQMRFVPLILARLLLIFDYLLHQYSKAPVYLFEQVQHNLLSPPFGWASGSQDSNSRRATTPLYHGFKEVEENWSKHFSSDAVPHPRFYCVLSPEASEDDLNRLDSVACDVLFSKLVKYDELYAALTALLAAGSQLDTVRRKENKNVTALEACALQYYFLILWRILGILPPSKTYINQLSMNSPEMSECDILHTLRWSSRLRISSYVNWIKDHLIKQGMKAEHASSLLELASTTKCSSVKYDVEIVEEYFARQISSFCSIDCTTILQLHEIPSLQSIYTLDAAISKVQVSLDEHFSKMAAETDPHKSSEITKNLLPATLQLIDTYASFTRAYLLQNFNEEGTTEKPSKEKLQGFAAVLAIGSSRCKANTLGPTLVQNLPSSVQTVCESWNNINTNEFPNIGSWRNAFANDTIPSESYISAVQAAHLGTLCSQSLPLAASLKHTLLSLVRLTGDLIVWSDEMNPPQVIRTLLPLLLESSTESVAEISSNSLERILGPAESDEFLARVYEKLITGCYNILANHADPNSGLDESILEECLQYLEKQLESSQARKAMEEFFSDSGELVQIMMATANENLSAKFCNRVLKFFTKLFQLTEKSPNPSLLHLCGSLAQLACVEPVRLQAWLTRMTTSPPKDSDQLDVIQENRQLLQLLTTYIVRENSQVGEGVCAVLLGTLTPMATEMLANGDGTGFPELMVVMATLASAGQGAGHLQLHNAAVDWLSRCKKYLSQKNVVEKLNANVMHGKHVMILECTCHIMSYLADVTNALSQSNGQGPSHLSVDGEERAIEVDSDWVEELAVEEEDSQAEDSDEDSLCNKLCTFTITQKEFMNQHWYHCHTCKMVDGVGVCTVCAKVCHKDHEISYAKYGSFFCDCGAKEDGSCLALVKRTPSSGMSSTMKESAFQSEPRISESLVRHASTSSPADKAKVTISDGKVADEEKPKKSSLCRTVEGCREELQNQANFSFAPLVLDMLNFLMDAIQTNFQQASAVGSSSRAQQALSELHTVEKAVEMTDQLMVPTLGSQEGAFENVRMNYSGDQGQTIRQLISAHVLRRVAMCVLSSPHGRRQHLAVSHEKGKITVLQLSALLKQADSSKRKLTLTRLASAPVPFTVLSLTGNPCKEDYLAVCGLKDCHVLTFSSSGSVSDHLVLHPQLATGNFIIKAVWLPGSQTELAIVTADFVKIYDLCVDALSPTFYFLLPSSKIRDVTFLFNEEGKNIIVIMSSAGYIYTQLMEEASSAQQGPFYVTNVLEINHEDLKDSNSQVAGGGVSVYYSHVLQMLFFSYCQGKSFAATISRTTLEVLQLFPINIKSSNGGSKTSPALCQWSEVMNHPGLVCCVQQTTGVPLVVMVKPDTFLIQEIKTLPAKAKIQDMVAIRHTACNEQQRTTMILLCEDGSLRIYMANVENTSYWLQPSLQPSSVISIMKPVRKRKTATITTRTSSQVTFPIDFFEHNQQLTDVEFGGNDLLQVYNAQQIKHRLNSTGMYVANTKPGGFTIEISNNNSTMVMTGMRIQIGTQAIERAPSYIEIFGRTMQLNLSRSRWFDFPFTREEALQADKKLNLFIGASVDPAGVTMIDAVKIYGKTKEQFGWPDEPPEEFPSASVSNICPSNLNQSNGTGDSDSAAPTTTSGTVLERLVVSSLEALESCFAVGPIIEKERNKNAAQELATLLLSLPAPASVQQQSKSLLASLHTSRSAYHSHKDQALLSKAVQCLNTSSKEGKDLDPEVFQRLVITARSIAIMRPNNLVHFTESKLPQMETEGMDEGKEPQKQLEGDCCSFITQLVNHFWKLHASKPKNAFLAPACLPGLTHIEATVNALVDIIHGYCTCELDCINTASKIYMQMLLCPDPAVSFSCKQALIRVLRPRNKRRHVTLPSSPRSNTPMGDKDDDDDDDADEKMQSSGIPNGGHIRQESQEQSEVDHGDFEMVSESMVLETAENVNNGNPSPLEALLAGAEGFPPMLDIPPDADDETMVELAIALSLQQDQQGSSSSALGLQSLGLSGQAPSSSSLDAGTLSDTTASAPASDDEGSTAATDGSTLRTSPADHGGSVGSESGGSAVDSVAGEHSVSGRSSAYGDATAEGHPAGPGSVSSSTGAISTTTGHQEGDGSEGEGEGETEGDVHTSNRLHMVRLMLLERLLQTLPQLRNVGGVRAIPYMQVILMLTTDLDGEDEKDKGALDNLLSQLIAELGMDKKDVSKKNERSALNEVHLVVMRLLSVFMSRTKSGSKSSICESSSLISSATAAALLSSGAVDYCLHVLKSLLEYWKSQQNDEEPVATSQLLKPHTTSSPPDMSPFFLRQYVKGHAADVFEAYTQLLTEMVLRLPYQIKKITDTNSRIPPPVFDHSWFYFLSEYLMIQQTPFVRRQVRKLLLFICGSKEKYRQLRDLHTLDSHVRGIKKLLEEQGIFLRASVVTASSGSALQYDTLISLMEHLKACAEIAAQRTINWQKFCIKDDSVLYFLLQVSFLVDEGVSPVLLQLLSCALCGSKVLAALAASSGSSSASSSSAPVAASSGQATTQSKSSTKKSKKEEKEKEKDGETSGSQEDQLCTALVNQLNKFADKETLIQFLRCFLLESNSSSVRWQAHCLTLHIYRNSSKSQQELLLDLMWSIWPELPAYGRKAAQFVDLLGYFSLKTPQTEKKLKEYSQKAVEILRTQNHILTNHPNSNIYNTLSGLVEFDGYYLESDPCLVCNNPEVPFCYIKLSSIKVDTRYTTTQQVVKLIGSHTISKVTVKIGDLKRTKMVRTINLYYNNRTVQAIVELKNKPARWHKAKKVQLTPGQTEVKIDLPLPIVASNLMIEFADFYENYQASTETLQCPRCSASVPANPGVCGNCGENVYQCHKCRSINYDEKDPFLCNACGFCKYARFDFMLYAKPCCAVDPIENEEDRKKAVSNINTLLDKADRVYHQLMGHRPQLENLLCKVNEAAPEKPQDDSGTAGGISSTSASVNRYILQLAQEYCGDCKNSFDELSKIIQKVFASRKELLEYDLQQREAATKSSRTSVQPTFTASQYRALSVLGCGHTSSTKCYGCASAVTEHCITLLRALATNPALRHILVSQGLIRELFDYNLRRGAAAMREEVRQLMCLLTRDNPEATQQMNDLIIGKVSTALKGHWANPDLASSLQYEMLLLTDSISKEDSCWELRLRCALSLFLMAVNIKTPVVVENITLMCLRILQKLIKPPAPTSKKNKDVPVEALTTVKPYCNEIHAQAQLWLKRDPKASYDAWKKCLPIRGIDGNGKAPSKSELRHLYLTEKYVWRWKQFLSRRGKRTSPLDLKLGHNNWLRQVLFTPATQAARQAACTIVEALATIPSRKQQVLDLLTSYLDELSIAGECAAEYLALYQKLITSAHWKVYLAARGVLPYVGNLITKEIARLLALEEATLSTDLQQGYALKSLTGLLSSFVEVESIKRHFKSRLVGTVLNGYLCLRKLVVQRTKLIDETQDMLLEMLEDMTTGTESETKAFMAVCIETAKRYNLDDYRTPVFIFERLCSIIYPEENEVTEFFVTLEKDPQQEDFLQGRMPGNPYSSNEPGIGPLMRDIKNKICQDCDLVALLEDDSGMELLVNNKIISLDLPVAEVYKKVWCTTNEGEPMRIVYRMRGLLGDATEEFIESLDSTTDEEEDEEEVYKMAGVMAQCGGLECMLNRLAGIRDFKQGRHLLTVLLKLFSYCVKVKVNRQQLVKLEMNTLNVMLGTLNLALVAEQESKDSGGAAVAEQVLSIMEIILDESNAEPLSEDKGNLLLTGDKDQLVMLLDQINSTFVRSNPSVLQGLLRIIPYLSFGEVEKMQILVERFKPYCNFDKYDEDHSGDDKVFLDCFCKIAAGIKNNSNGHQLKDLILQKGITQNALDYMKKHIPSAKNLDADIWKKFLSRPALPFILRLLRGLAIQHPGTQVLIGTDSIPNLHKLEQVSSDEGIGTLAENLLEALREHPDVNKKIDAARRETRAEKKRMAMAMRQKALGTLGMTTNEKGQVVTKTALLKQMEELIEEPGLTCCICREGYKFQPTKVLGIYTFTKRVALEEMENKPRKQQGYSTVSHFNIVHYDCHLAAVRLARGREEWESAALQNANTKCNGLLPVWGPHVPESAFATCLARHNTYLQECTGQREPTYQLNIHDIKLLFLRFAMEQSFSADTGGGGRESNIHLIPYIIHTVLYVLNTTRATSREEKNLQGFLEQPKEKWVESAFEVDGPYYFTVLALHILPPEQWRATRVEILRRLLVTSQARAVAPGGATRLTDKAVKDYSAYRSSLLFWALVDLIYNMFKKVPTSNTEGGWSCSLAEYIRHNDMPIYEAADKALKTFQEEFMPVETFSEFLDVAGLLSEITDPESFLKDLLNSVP
UniProt O43396: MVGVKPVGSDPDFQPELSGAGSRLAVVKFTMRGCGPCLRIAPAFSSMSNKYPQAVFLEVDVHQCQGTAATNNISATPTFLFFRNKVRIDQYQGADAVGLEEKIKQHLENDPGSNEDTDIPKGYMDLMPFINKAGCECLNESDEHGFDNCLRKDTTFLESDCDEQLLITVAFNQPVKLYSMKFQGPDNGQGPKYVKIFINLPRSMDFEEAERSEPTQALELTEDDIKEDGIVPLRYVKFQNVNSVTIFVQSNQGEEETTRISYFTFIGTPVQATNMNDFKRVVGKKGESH

Compound: CC1Cc2ccccc2N1C(=O)C1CCCN(C1)C(=O)CCl (mixture of isomers) [TRIM25 ligand 11 (diastereomer mixture)]
Assay: probe-labelled cysteine peptide fold change vs DMSO (competition) (log2 fold change); higher = less target engagement (more negative = stronger competition)
Settings: 50 µM; THP-1; incubation time: 4 h
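Further: competitive chemoproteomic profiling in live THP-1 cells with an iodoacetamide desthiobiotin (IA-DTB) probe, comparing probe-labelled peptide intensities in compound-treated cells against DMSO-treated controls.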

Target | probe-labelled cysteine peptide fold change
TYMP_P19971_280+293_CVGHALEVEEALLCMDGAGPPDLR (UniProt P19971) | -0.198
UBE2A_P49459_88_MFHPNVYADGSICLDILQNR (UniProt P49459) | -0.0675
UBR2_Q8IWV8_1619_LINLPEDYSSLINQASNFSCPK (UniProt Q8IWV8) | -0.0423
UBA3_Q8TBC4_164_QFHIIVCGLDSIIAR (UniProt Q8TBC4) | 0.135
U2AF2_P26368_442_IFVEFTSVFDCQK (UniProt P26368) | 0.0604
UBASH3B_Q8TF42_135_AHNIFPHITLCQFFMCEDSK (UniProt Q8TF42) | 0.18
UBR4_Q5T4S7_3677_CSASVPANPGVCGNCGENVYQCHK (UniProt Q5T4S7) | 0.111
UBAP2_Q5T6F2_71+78_NQDECIVALHDCNGDVNK (UniProt Q5T6F2) | 0.0837
UBA6_A0AVT1_96_CQAWDLGTNFFLSEDDVVNK | -0.102
U2AF2_P26368_429_SIEIPRPVDGVEVPGCGK (UniProt P26368) | 0.0728
UBE3A_Q05086_760_YLFRPEEIELLICGSR (UniProt Q05086) | 0.0225
UBE2V1_Q13404_71_IECGPKYPEAPPFVR (UniProt Q13404) | 0.115
UBE2O_Q9C0C9_585_SNDLFPVHHLDNNEFCPGDFVVDK (UniProt Q9C0C9) | 0.0154
UBR4_Q5T4S7_1900_RVAMCVLSSPHGR (UniProt Q5T4S7) | 0.0406
UBE2J2_Q8N2K1_157_VFCELFPEVVEEIK (UniProt Q8N2K1) | 0.0455
UBE4A_Q14139_465_LLTFNPTYCALK (UniProt Q14139) | -0.045
TXNL1_O43396_135+137_AGCECLNESDEHGFDNCLRK (UniProt O43396) | -0.518
TXNL1_O43396_135_AGCECLNESDEHGFDNCLRK (UniProt O43396) | -0.268
UBL5_Q9BZL1_18_CNTDDTIGDLK (UniProt Q9BZL1) | 0.203

As entered above.
U2AF2_P26368_442_IFVEFTSVFDCQK (UniProt P26368) – probe-labelled cysteine peptide fold change: 0.0604
UBR2_Q8IWV8_1619_LINLPEDYSSLINQASNFSCPK (UniProt Q8IWV8) – probe-labelled cysteine peptide fold change: -0.0423
